Test results published in ChEMBL document CHEMBL1139381 (J Med Chem, 2009).

How the values were obtained:
Assay type in all cases: functional, organism-based
Plasmodium falciparum [1] = assay: Antimalarial activity after 72 hrs against chloroquine-sensitive Plasmodium falciparum D10 infected human A+ erythrocytes in Makler LDH reporter assay; details: D10, 72 h
Plasmodium falciparum [2] = assay: Antimalarial activity after 72 hrs against chloroquine-resistant Plasmodium falciparum W2 infected human A+ erythrocytes by Makler LDH reporter assay; details: W2, 72 h
Plasmodium falciparum [3] = assay: Antimalarial activity after 24 hrs against chloroquine-resistant synchronous Plasmodium falciparum K1 infected human A+ erythrocytes by [3H]hypoxanthine uptake

SMILES: Clc1ccccc1C(c1ccccc1)(c1ccccc1)n1ccnc1 [CLOTRIMAZOLE]
- IC50 (Plasmodium falciparum [1]): 550 nM
- IC50 (Plasmodium falciparum [2]): 490 nM
- IC50 (Plasmodium falciparum [3]): 250 nM
